No constants are given. Whether binding was seen depends on the method and setting. Some binding calls cover weakened binding; strength is not graded here.
T1: rat VPAC2 receptor (rat, UniProt P35000 23-437)
T1 sequence (looked up): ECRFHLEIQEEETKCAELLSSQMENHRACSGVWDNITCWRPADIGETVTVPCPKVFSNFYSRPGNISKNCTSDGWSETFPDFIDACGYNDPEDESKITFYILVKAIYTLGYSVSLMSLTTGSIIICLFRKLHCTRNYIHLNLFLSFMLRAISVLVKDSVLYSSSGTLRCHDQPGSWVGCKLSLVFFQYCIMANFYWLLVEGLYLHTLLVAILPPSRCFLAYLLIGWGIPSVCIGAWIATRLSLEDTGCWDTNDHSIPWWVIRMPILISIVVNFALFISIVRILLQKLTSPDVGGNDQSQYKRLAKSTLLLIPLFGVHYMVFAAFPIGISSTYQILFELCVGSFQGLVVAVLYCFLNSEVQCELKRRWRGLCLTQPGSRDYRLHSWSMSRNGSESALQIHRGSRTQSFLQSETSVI

T2: rat PAC1 receptor (rat, UniProt P32215 20-523)
T2 sequence (looked up): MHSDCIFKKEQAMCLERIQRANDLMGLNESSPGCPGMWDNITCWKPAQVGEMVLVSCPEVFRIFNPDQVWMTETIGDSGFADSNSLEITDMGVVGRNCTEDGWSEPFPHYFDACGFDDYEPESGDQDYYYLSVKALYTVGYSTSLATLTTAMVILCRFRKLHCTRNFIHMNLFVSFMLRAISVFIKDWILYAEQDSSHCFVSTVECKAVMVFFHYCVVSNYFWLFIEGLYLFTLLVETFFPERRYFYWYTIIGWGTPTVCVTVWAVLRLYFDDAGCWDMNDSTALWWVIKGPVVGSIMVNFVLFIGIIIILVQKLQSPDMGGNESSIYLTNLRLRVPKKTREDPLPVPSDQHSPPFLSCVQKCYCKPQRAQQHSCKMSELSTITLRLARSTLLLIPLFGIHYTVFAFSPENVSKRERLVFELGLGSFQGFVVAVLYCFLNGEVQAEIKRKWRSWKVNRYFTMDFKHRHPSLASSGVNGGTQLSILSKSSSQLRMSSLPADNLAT


target: T1, rat VPAC2 receptor; assay: competition binding, CHO membranes

binding	Binder
binds	HSDAVFTDNYTRLLAKLALQKYLQSIKNKRYGGPSSGAPPPS (N-terminal hexanoyl (C6)) [P119]
binds	HSDAVFTDNYTRLRKQVAAKKYLQSIKNKRYGGPSSGAPPPS (N-terminal hexanoyl (C6)) [P31]

Binder	binding
MHSDAVFTDNYTRLRKQVAAKKYLQSIKNKRYGGPSSGAPPPS (N-terminal methionine added (M-), also called VPAC2-P104) [P104]	binds

target: T2, rat PAC1 receptor; assay: competition binding, membranes; receptor inferred as rat PAC1

binding	Binder
no binding (tested: 10 µM)	HSDAVFTDNYTRLLAKLALQKYLQSIKNKRYGGPSSGAPPPS (N-terminal hexanoyl (C6)) [P119]
no binding (tested: 10 µM)	HSDAVFTDNYTRLRKQVAAKKYLQSIKNKRYGGPSSGAPPPS (N-terminal hexanoyl (C6)) [P31]

Binder	binding
MHSDAVFTDNYTRLRKQVAAKKYLQSIKNKRYGGPSSGAPPPS (N-terminal methionine added (M-), also called VPAC2-P104) [P104]	no binding (tested: 10 µM)
